Source: PubChem BioAssay AID2685 (National Center for Advancing Translational Sciences (NCATS), 2010)
The other results are listed elsewhere or left out. The main result of the screen is listed elsewhere. These columns were measured beside it and carry no call. Compounds called inactive in the main read-out are mostly missing here. Words in brackets tell the shape of the fitted curve; partial curves, single points and poor fits give uncertain potencies.

Test: qHTS Assay for Lipid Storage Modulators in Drosophila S3 Cells;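 on cell number change: cells counted by Cell Tracker Red CMTPX staining in the red channel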
Conditions: BODIPY lipid droplet fluorescence, 18-24 h; for cell number change: measured here: cell count max response, cells fed with added oleic acid
In short: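 Laser-scanning cytometry quantifies lipid droplet accumulation (500–530 nm total intensity; droplet/cell object ratio) in oleic acid-fed (400 uM added) Drosophila S3 cells treated with a concentration series. 20 uM Triacsin C defined 100% inhibition.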

[1] = measured here: cell number channel AC50, cells fed with added oleic acid
[2] = measured here: lipid fluorescence (Fed channel) AC50, cells fed with added oleic acid

| SMILES | cell number change | AC50 [1] | AC50 [2] |
| --- | --- | --- | --- |
| CCOc1ccc(C(c2c(O)nc(SC)n(C)c2=O)c2c(O)nc(SC)n(C)c2=O)cc1 | 2.79% | – | – |
| Cc1ccc(NC(=O)Cn2cccc2C2=NC(c3ccccc3)CO2)c(C)c1 (stereo not drawn) | 47.3% | 2.59 µM [rising, partial curve] | 7.31 µM [rising, partial curve] |
| O=C(NCCC1=CCCCC1)C1COc2ccccc2O1 (stereo not drawn) | -9.21% | – | 0.651 µM [falling, single point] |
| Cn1c(=O)c2c(nc(CN3CCc4ccccc4C3)n2Cc2ccccc2)n(C)c1=O | -29.9% | – | 29.1 µM [falling, single point] |
| Brc1cc2c(cc1CN1CCc3ccccc3C1)OCO2 | 18.1% | – | – |
| N#CC(C#N)=C1C=C2C=C(N3CCCCC3)CCC2CC1 (stereo not drawn) | -99.6% | 0.58 µM [falling, full curve] | 0.231 µM [falling, full curve] |
| CC1(C)CC2(C)OCCN2C(=S)N1 (stereo not drawn) | -13.3% | – | 32.6 µM [falling, single point] |
| O=C1C(=O)N(c2ccccn2)C(c2ccc(Br)cc2)/C1=C(/O)c1ccc(Br)cc1 (stereo not drawn) | -5.56% | – | 29.1 µM [rising, single point] |
| CSCC[C@H](NC(=O)OC(C)(C)C)c1nnc(SCc2ccccc2)o1 | -30.2% | 18.4 µM [falling, partial curve] | – |
| COc1ccc(CCNC(=O)C2CCC(=O)N(C3CCCCCC3)C2)cc1 (stereo not drawn) | 34% | 23.1 µM [rising, single point] | – |
| OCC1(CO)COC(CCc2ccccc2)=N1 | 26.7% | – | 29.1 µM [rising, single point] |
| CC(C(=O)Nc1ccccn1)N1C(=O)C2C3C=CC(C3)C2C1=O (stereo not drawn) | 1.15% | – | 0.58 µM [falling, full curve, poor fit] |
| Cc1ccc(S(=O)(=O)CCC(=O)N(Cc2nnc(-c3ccc(Cl)cc3)o2)C2CC2)cc1 | -12.5% | – | 0.206 µM [falling, full curve, poor fit] |
| CC1(C)CC(=O)C2=C(C1)N(CC1CCCO1)C(=O)C2(NC(=O)c1cccnc1)C(F)(F)F (stereo not drawn) | -22.5% | 0.00461 µM [falling, full curve, poor fit] | – |
| CCNc1nc(N2CCOCC2)nc(N(c2ccccc2)c2ccccc2)n1 | -82.4% | 18.4 µM [falling, single point] | 6.51 µM [falling, partial curve, poor fit] |
| OC(CNC1CCCC1)COc1c(F)cc(Br)cc1F (stereo not drawn) | -8.45% | – | – |
| COc1cccc(CNC(=O)CN(c2ccc(C(C)C)cc2)S(=O)(=O)c2c(C)noc2C)c1 | – | 0.00517 µM [rising, full curve, poor fit] | – |

4 entries from above, set out differently:
SMILES	cell number change	AC50 [1]	AC50 [2]
Cc1ccc(NC(=O)Cn2cccc2C2=NC(c3ccccc3)CO2)c(C)c1 (stereo not drawn)	47.3%	2.59 µM [rising, partial curve]	7.31 µM [rising, partial curve]
Brc1cc2c(cc1CN1CCc3ccccc3C1)OCO2	18.1%	–	–
O=C1C(=O)N(c2ccccn2)C(c2ccc(Br)cc2)/C1=C(/O)c1ccc(Br)cc1 (stereo not drawn)	-5.56%	–	29.1 µM [rising, single point]
CSCC[C@H](NC(=O)OC(C)(C)C)c1nnc(SCc2ccccc2)o1	-30.2%	18.4 µM [falling, partial curve]	–
